Results are given in words; binding and its absence hold for the method and conditions named. Binding seen in cells or lysates may run through a third protein. A yes stands for co-enrichment or nearness to the bait. Other partners may have been found. Sequences can lack the tags named with a protein.
T1: FLAG-tagged SMCR8 (Smith-Magenis Syndrome Chromosome Region, Candidate 8) (UniProt Q8TEV9)
T1 sequence: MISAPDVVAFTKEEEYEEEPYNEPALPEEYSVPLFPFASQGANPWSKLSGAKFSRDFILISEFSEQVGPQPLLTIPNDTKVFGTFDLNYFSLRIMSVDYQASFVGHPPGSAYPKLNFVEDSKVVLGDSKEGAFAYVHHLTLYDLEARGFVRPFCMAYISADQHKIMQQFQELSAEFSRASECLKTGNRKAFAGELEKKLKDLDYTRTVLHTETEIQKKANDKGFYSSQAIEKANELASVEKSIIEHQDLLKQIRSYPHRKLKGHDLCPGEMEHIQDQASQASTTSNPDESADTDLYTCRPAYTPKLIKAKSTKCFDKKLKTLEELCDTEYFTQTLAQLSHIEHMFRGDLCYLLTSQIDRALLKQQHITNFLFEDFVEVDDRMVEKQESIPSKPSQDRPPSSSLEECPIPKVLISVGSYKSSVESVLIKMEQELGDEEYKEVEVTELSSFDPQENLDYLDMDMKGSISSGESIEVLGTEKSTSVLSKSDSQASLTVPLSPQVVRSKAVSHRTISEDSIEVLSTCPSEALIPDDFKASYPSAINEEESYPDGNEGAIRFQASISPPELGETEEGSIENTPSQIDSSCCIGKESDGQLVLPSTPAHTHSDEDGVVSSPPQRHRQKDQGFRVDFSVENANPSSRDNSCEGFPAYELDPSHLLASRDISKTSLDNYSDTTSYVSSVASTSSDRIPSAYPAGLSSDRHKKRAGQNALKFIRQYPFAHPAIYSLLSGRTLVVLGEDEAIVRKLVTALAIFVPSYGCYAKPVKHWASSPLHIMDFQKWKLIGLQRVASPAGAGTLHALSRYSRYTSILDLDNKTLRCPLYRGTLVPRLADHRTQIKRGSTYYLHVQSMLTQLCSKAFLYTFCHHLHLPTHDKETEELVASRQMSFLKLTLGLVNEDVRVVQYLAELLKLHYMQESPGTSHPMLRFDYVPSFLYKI

B1: nucleoporin 133 (protein, UniProt Q8WUM0 1-1156)
chain: MFPAAPSPRTPGTGSRRGPLAGLGPGSTPRTASRKGLPLGSAVSSPVLFSPVGRRSSLSSRGTPTRMFPHHSITESVNYDVKTFGSSLPVKVMEALTLAEVDDQLTINIDEGGWACLVCKEKLIIWKIALSPITKLSVCKELQLPPSDFHWSADLVALSYSSPSGEAHSTQAVAVMVATREGSIRYWPSLAGEDTYTEAFVDSGGDKTYSFLTAVQGGSFILSSSGSQLIRLIPESSGKIHQHILPQGQGMLSGIGRKVSSLFGILSPSSDLTLSSVLWDRERSSFYSLTSSNISKWELDDSSEKHAYSWDINRALKENITDAIWGSESNYEAIKEGVNIRYLDLKQNCDGLVILAAAWHSADNPCLIYYSLITIEDNGCQMSDAVTVEVTQYNPPFQSEDLILCQLTVPNFSNQTAYLYNESAVYVCSTGTGKFSLPQEKIVFNAQGDSVLGAGACGGVPIIFSRNSGLVSITSRENVSILAEDLEGSLASSVAGPNSESMIFETTTKNETIAQEDKIKLLKAAFLQYCRKDLGHAQMVVDELFSSHSDLDSDSELDRAVTQISVDLMDDYPASDPRWAESVPEEAPGFSNTSLIILHQLEDKMKAHSFLMDFIHQVGLFGRLGSFPVRGTPMATRLLLCEHAEKLSAAIVLKNHHSRLSDLVNTAILIALNKREYEIPSNLTPADVFFREVSQVDTICECLLEHEEQVLRDAPMDSIEWAEVVINVNNILKDMLQAASHYRQNRNSLYRREESLEKEPEYVPWTATSGPGGIRTVIIRQHEIVLKVAYPQADSNLRNIVTEQLVALIDCFLDGYVSQLKSVDKSSNRERYDNLEMEYLQKRSDLLSPLLSLGQYLWAASLAEKYCDFDILVQMCEQTDNQSRLQRYMTQFADQNFSDFLFRWYLEKGKRGKLLSQPISQHGQLANFLQAHEHLSWLHEINSQELEKAHATLLGLANMETRYFAKKKTLLGLSKLAALASDFSEDMLQEKIEEMAEQERFLLHQETLPEQLLAEKQLNLSAMPVLTAPQLIGLYICEENRRANEYDFKKALDLLEYIDEEEDININDLKLEILCKALQRDNWSSSDGKDDPIEVSKDSIFVKILQKLLKDGIQLSEYLPEVKDLLQADQLGSLKSNPYFEFVLKANYEYYVQGQI
B2: nucleoporin 155 (protein, UniProt O75694 1-1391)
chain: MPSSLLGAAMPASTSAAALQEALENAGRLIDRQLQEDRMYPDLSELLMVSAPNNPTVSGMSDMDYPLQGPGLLSVPNLPEISSIRRVPLPPELVEQFGHMQCNCMMGVFPPISRAWLTIDSDIFMWNYEDGGDLAYFDGLSETILAVGLVKPKAGIFQPHVRHLLVLATPVDIVILGLSYANLQTGSGVLNDSLSGGMQLLPDPLYSLPTDNTYLLTITSTDNGRIFLAGKDGCLYEVAYQAEAGWFSQRCRKINHSKSSLSFLVPSLLQFTFSEDDPILQIAIDNSRNILYTRSEKGVIQVYDLGQDGQGMSRVASVSQNAIVSAAGNIARTIDRSVFKPIVQIAVIENSESLDCQLLAVTHAGVRLYFSTCPFRQPLARPNTLTLVHVRLPPGFSASSTVEKPSKVHRALYSKGILLMAASENEDNDILWCVNHDTFPFQKPMMETQMTAGVDGHSWALSAIDELKVDKIITPLNKDHIPITDSPVVVQQHMLPPKKFVLLSAQGSLMFHKLRPVDQLRHLLVSNVGGDGEEIERFFKLHQEDQACATCLILACSTAACDREVSAWATRAFFRYGGEAQMRFPTTLPPPSNVGPILGSPVYSSSPVPSGSPYPNPSFLGTPSHGIQPPAMSTPVCALGNPATQATNMSCVTGPEIVYSGKHNGICIYFSRIMGNIWDASLVVERIFKSGNREITAIESSVPCQLLESVLQELKGLQEFLDRNSQFAGGPLGNPNTTAKVQQRLIGFMRPENGNPQQMQQELQRKFHEAQLSEKISLQAIQQLVRKSYQALALWKLLCEHQFTIIVAELQKELQEQLKITTFKDLVIRDKELTGALIASLINCYIRDNAAVDGISLHLQDICPLLYSTDDAICSKANELLQRSRQVQNKTEKERMLRESLKEYQKISNQVDLSNVCAQYRQVRFYEGVVELSLTAAEKKDPQGLGLHFYKHGEPEEDIVGLQAFQERLNSYKCITDTLQELVNQSKAAPQSPSVPKKPGPPVLSSDPNMLSNEEAGHHFEQMLKLSQRSKDELFSIALYNWLIQVDLADKLLQVASPFLEPHLVRMAKVDQNRVRYMDLLWRYYEKNRSFSNAARVLSRLADMHSTEISLQQRLEYIARAILSAKSSTAISSIAADGEFLHELEEKMEVARIQLQIQETLQRQYSHHSSVQDAVSQLDSELMDITKLYGEFADPFKLAECKLAIIHCAGYSDPILVQTLWQDIIEKELSDSVTLSSSDRMHALSLKIVLLGKIYAGTPRFFPLDFIVQFLEQQVCTLNWDVGFVIQTMNEIGVPLPRLLEVYDQLFKSRDPFWNRMKKPLHLLDCIHVLLIRYVENPSQVLNCERRRFTNLCLDAVCGYLVELQSMSSSVAVQAITGNFKSLQAKLERLH
B3: nucleoporin 160 (protein, UniProt Q12769 1-1436)
chain: MLHLSAAPPAPPPEVTATARPCLCSVGRRGDGGKMAAAGALERSFVELSGAERERPRHFREFTVCSIGTANAVAGAVKYSESAGGFYYVESGKLFSVTRNRFIHWKTSGDTLELMEESLDINLLNNAIRLKFQNCSVLPGGVYVSETQNRVIILMLTNQTVHRLLLPHPSRMYRSELVVDSQMQSIFTDIGKVDFTDPCNYQLIPAVPGISPNSTASTAWLSSDGEALFALPCASGGIFVLKLPPYDIPGMVSVVELKQSSVMQRLLTGWMPTAIRGDQSPSDRPLSLAVHCVEHDAFIFALCQDHKLRMWSYKEQMCLMVADMLEYVPVKKDLRLTAGTGHKLRLAYSPTMGLYLGIYMHAPKRGQFCIFQLVSTESNRYSLDHISSLFTSQETLIDFALTSTDIWALWHDAENQTVVKYINFEHNVAGQWNPVFMQPLPEEEIVIRDDQDPREMYLQSLFTPGQFTNEALCKALQIFCRGTERNLDLSWSELKKEVTLAVENELQGSVTEYEFSQEEFRNLQQEFWCKFYACCLQYQEALSHPLALHLNPHTNMVCLLKKGYLSFLIPSSLVDHLYLLPYENLLTEDETTISDDVDIARDVICLIKCLRLIEESVTVDMSVIMEMSCYNLQSPEKAAEQILEDMITIDVENVMEDICSKLQEIRNPIHAIGLLIREMDYETEVEMEKGFNPAQPLNIRMNLTQLYGSNTAGYIVCRGVHKIASTRFLICRDLLILQQLLMRLGDAVIWGTGQLFQAQQDLLHRTAPLLLSYYLIKWGSECLATDVPLDTLESNLQHLSVLELTDSGALMANRFVSSPQTIVELFFQEVARKHIISHLFSQPKAPLSQTGLNWPEMITAITSYLLQLLWPSNPGCLFLECLMGNCQYVQLQDYIQLLHPWCQVNVGSCRFMLGRCYLVTGEGQKALECFCQAASEVGKEEFLDRLIRSEDGEIVSTPRLQYYDKVLRLLDVIGLPELVIQLATSAITEAGDDWKSQATLRTCIFKHHLDLGHNSQAYEALTQIPDSSRQLDCLRQLVVVLCERSQLQDLVEFPYVNLHNEVVGIIESRARAVDLMTHNYYELLYAFHIYRHNYRKAGTVMFEYGMRLGREVRTLRGLEKQGNCYLAALNCLRLIRPEYAWIVQPVSGAVYDRPGASPKRNHDGECTAAPTNRQIEILELEDLEKECSLARIRLTLAQHDPSAVAVAGSSSAEEMVTLLVQAGLFDTAISLCQTFKLPLTPVFEGLAFKCIKLQFGGEAAQAEAWAWLAANQLSSVITTKESSATDEAWRLLSTYLERYKVQNNLYHHCVINKLLSHGVPLPNWLINSYKKVDAAELLRLYLNYDLLEEAVDLVSEYVDAVLGKGHQYFGIEFPLSATAPMVWLPYSSIDQLLQALGENSANSHNIALSQKILDKLEDYQQKVDKATRDLLYRRTL
B4: THO complex 3 (protein, UniProt Q96J01 1-351)
chain: MAVPAAAMGPSALGQSGPGSMAPWCSVSSGPSRYVLGMQELFRGHSKTREFLAHSAKVHSVAWSCDGRRLASGSFDKTASVFLLEKDRLVKENNYRGHGDSVDQLCWHPSNPDLFVTASGDKTIRIWDVRTTKCIATVNTKGENINICWSPDGQTIAVGNKDDVVTFIDAKTHRSKAEEQFKFEVNEISWNNDNNMFFLTNGNGCINILSYPELKPVQSINAHPSNCICIKFDPMGKYFATGSADALVSLWDVDELVCVRCFSRLDWPVRTLSFSHDGKMLASASEDHFIDIAEVETGDKLWEVQCESPTFTVAWHPKRPLLAFACDDKDGKYDSSREAGTVKLFGLPNDS
B5: exportin for tRNA (protein, UniProt O43592 1-962)
chain: MDEQALLGLNPNADSDFRQRALAYFEQLKISPDAWQVCAEALAQRTYSDDHVKFFCFQVLEHQVKYKYSELTTVQQQLIRETLISWLQAQMLNPQPEKTFIRNKAAQVFALLFVTEYLTKWPKFFFDILSVVDLNPRGVDLYLRILMAIDSELVDRDVVHTSEEARRNTLIKDTMREQCIPNLVESWYQILQNYQFTNSEVTCQCLEVVGAYVSWIDLSLIANDRFINMLLGHMSIEVLREEACDCLFEVVNKGMDPVDKMKLVESLCQVLQSAGFFSIDQEEDVDFLARFSKLVNGMGQSLIVSWSKLIKNGDIKNAQEALQAIETKVALMLQLLIHEDDDISSNIIGFCYDYLHILKQLTVLSDQQKANVEAIMLAVMKKLTYDEEYNFENEGEDEAMFVEYRKQLKLLLDRLAQVSPELLLASVRRVFSSTLQNWQTTRFMEVEVAIRLLYMLAEALPVSHGAHFSGDVSKASALQDMMRTLVTSGVSSYQHTSVTLEFFETVVRYEKFFTVEPQHIPCVLMAFLDHRGLRHSSAKVRSRTAYLFSRFVKSLNKQMNPFIEDILNRIQDLLELSPPENGHQSLLSSDDQLFIYETAGVLIVNSEYPAERKQALMRNLLTPLMEKFKILLEKLMLAQDEERQASLADCLNHAVGFASRTSKAFSNKQTVKQCGCSEVYLDCLQTFLPALSCPLQKDILRSGVRTFLHRMIICLEEEVLPFIPSASEHMLKDCEAKDLQEFIPLINQITAKFKIQVSPFLQQMFMPLLHAIFEVLLRPAEENDQSAALEKQMLRRSYFAFLQTVTGSGMSEVIANQGAENVERVLVTVIQGAVEYPDPIAQKTCFIILSKLVELWGGKDGPVGFADFVYKHIVPACFLAPLKQTFDLADAQTVLALSECAVTLKTIHLKRGPECVQYLQQEYLPSLQVAPEIIQEFCQALQQPDAKVFKNYLKVFFQRAKP

Biological target: T1, FLAG-tagged SMCR8 (Smith-Magenis Syndrome Chromosome Region, Candidate 8)
Assay: affinity purification with mass spectrometry; FL-SMCR8, C9orf72-FL or empty vector transfected in HEK 293T; α-FLAG agarose IP from whole cell lysates with or without RNase; LC-MS/MS; hits with three or more spectra and not detected in vector only control

Binder | binding
B1 | binds
B2 | binds
B3 | binds
B4 | binds
B5 | binds

— paper PMC7364817
